The other results are listed elsewhere or left out. Baselines shift from plate to plate; read single values as rough.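 Hits were defined as a z-score below −3.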

For the assay, the target named is T1, YTHDF1 YTH domain (aa 365-554) (UniProt Q9BYJ9).
T1 sequence (whole entry): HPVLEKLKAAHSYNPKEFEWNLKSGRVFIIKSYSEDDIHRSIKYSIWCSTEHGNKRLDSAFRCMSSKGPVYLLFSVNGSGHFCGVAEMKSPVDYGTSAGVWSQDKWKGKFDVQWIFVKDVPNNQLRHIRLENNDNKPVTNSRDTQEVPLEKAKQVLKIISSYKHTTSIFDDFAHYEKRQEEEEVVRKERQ
Nature of the assay: tryptophan fluorescence intensity z-score (mean); higher = higher fluorescence, less quenching (negative = binding / quenching). Conditions: 10 µM.
`Cc1cccc(Nc2ccccc2C(=O)O)c1C` (plate: M 7-8): the “tryptophan fluorescence intensity z-score” value was inactive: -0.303.

As to `COc1c(O)cc2oc3cc(O)c(CC=C(C)C)c(O)c3c(=O)c2c1CC=C(C)C` [alpha-MANGOSTIN] (plate: M 19-20), the “tryptophan fluorescence intensity z-score” value was inactive: -0.655.

With `CC1(C)S[C@@H]2[C@H](NC(=O)Cc3ccccc3)C(=O)N2[C@H]1C(=O)O` (plate: M 3-4), the “tryptophan fluorescence intensity z-score” value was inactive: -0.121.

For `CCCCc1nc(Cl)c(CO)n1Cc1ccc(-c2ccccc2-c2nnn[nH]2)cc1` (plate: M 9-10), the “tryptophan fluorescence intensity z-score” value was inactive: -0.258.

In the case of `C=CCCCCCCCCC(=O)O` (plate: M 11-12), the “tryptophan fluorescence intensity z-score” value was inactive: 0.0682.

In the case of `COC(=O)C[C@H]1C(C)(C)[C@@H](OC(C)=O)[C@@H]2CC3C4CC(=O)O[C@@H](c5ccoc5)[C@]4(C)CCC3[C@@]1(C)C2=O` (stereo partly drawn) (plate: M 13-14), the “tryptophan fluorescence intensity z-score” value is inactive: 0.0424.

`CCN(CC)CCNC(=O)COc1ccc(OC)cc1` (plate: M 7-8): the “tryptophan fluorescence intensity z-score” value was inactive: 0.495.

For the molecule `CC(C)(C)NCC(O)c1ccc(O)c(CO)c1` (racemic) (plate: M 5-6), the “tryptophan fluorescence intensity z-score” value is inactive: -0.151.

For the molecule `CC(=O)OCC1=C(C(=O)O)N2C(=O)[C@@H](NC(=O)Cc3cccs3)[C@H]2SC1` (plate: M 1-2), the “tryptophan fluorescence intensity z-score” value is inactive: 0.00195.

For the molecule `O=C1CCC(N2C(=O)c3ccccc3C2=O)C(=O)N1` (stereo not drawn) (plate: M 9-10), the “tryptophan fluorescence intensity z-score” value is inactive: 0.0571.

Turning to `CC1(C)C[C@@H]2C(=O)CC[C@H]3O[C@]3(C)CC[C@H]21` (plate: M 21-22), the “tryptophan fluorescence intensity z-score” value was inactive: 0.538.

Turning to `OC[C@H]1O[C@@](CO)(O[C@H]2O[C@H](CO)[C@@H](O)[C@H](O)[C@H]2O)[C@@H](O[C@H]2O[C@H](CO)[C@@H](O)[C@H](O)[C@H]2O)[C@@H]1O` (plate: M 17-18), the “tryptophan fluorescence intensity z-score” value is inactive: 0.0199.

On to `CC(C)=CCC/C(C)=C/CC/C(C)=C/CC/C(C)=C/CO` (plate: M 23-24), for which the “tryptophan fluorescence intensity z-score” value was inactive: 0.505.

In the case of `CCN(CC)Cc1cc(Nc2ccnc3cc(Cl)ccc23)ccc1O` (plate: M 1-2), the “tryptophan fluorescence intensity z-score” value is inactive: 0.0554.

Regarding `COc1ccc(-c2cc(=O)c3c(O)cc(OC)cc3o2)cc1` (plate: M 21-22), the “tryptophan fluorescence intensity z-score” value was inactive: 0.072.

As for `O=C(/C=C/C=C/c1ccc2c(c1)OCO2)N1CCCCC1` (plate: M 7-8), the “tryptophan fluorescence intensity z-score” value is inactive: 0.00124.

For the molecule `CCC(=O)OCC(=O)[C@@]1(OC(=O)CC)[C@@H](C)C[C@H]2[C@@H]3CCC4=CC(=O)C=C[C@]4(C)[C@@]3(Cl)[C@@H](O)C[C@@]21C` (plate: M 1-2), the “tryptophan fluorescence intensity z-score” value was inactive: -0.535.

With `O=C(O)CN(CCN(CC(=O)O)CC(=O)O)CCN(CC(=O)O)CC(=O)O` (plate: M 13-14), the “tryptophan fluorescence intensity z-score” value was inactive: 0.508.

As to `COc1ccc(-c2cc(=O)c3c(OC)c(OC)c(OC)cc3o2)cc1OC` (plate: M 19-20), the “tryptophan fluorescence intensity z-score” value was inactive: -0.529.

As for `CC(C)NCC(O)c1cc(O)cc(O)c1` (stereo not drawn) (plate: M 3-4), the “tryptophan fluorescence intensity z-score” value is inactive: -0.0333.

Regarding `COc1ccc2c(c1)O[C@H]1c3ccc(OC)cc3OC[C@@H]21` (plate: M 15-16), the “tryptophan fluorescence intensity z-score” value was inactive: 0.599.

On to `CC1COc2c(N3CCN(C)CC3)c(F)cc3c(=O)c(C(=O)O)cn1c23` (stereo not drawn) (plate: M 7-8), for which the “tryptophan fluorescence intensity z-score” value was inactive: -0.189.

Take `O=C(O)CCCC[C@@H]1SC[C@@H]2NC(=O)N[C@@H]21` (plate: M 7-8): the “tryptophan fluorescence intensity z-score” value was inactive: -0.163.

Regarding `C[C@H](CCC(=O)O)[C@H]1CC[C@H]2[C@@H]3CC[C@@H]4C[C@H](O)CC[C@]4(C)[C@H]3CC[C@]12C` (plate: M 17-18), the “tryptophan fluorescence intensity z-score” value was inactive: 0.221.

Turning to `CC(=O)O[C@@H]1CC2C(C)(C)C(=O)CC[C@]2(C)C2CC[C@]3(C)C(=CC(=O)O[C@H]3c3ccoc3)[C@@]21C` (stereo partly drawn) (plate: M 21-22), the “tryptophan fluorescence intensity z-score” value is inactive: -0.0333.

Turning to `CC(=O)O[C@H]1C[C@@H](OC(C)=O)C(C)(C)C2CC(=O)[C@]3(C)C(CC[C@@]4(C)[C@H](c5ccoc5)OC(=O)[C@H]5O[C@]543)[C@]21C` (stereo partly drawn) (plate: M 13-14), the “tryptophan fluorescence intensity z-score” value is inactive: -0.016.

Turning to `OCCN1C[C@H](O)[C@@H](O)[C@H](O)[C@H]1CO` (plate: M 9-10), the “tryptophan fluorescence intensity z-score” value was inactive: -0.273.

For `O=C(O)c1nc2cc(Cl)c(Cl)cc2nc1O` (plate: M 21-22), the “tryptophan fluorescence intensity z-score” value is inactive: 0.157.

With `CC(=O)OCC[N+](C)(C)C` (plate: M 1-2), the “tryptophan fluorescence intensity z-score” value is inactive: -0.445.

For `Cn1cnc([N+](=O)[O-])c1Sc1ncnc2[nH]cnc12` (plate: M 1-2), the “tryptophan fluorescence intensity z-score” value is inactive: -0.0378.

Turning to `CC(C)C(=O)Nc1ccc([N+](=O)[O-])c(C(F)(F)F)c1` (plate: M 7-8), the “tryptophan fluorescence intensity z-score” value was inactive: 0.00302.

In the case of `NCC[C@H](O)C(=O)N[C@@H]1C[C@H](N)[C@@H](O[C@H]2O[C@H](CN)[C@@H](O)[C@H](O)[C@H]2O)[C@H](O)[C@H]1O[C@H]1O[C@H](CO)[C@@H](O)[C@H](N)[C@H]1O` (plate: M 1-2), the “tryptophan fluorescence intensity z-score” value was inactive: -0.0746.

Take `COc1ccc2c(c1)OC[C@@H](Cc1ccc(OC)c(OC)c1)[C@H]2O` (plate: M 21-22): the “tryptophan fluorescence intensity z-score” value is inactive: 0.96.

Consider `CC(C)=CCOc1cc2oc(=O)ccc2cc1O` (plate: M 13-14), for which the “tryptophan fluorescence intensity z-score” value was inactive: 0.635.

`Cc1cc2nc3c(=O)[nH]c(=O)nc-3n(CC(O)C(O)C(O)COP(=O)(O)O)c2cc1C` (stereo not drawn) (plate: M 11-12): the “tryptophan fluorescence intensity z-score” value was inactive: 0.539.

As for `COc1cc(/C=C/C(=O)CC(=O)/C=C/c2ccc(O)c(OC)c2)ccc1O` (plate: M 19-20), the “tryptophan fluorescence intensity z-score” value is inactive: -0.505.

With `CN1CCC(OC(c2ccccc2)c2ccccc2)CC1` (plate: M 3-4), the “tryptophan fluorescence intensity z-score” value was inactive: -0.384.

`O=C(Oc1cccc2cccnc12)c1ccccc1` (plate: M 11-12): the “tryptophan fluorescence intensity z-score” value was inactive: -0.256.

Regarding `C/C=C1\[C@H]2C=C(C)C[C@]1(N)c1ccc(=O)[nH]c1C2` (plate: M 19-20), the “tryptophan fluorescence intensity z-score” value is inactive: -0.0264.

For `C[N+](C)(C)CCO.[Cl-]` (plate: M 9-10), the “tryptophan fluorescence intensity z-score” value was inactive: -0.397.

With `C[C@H]1COc2c(N3CCN(C)CC3)c(F)cc3c(=O)c(C(=O)O)cn1c23` (plate: M 9-10), the “tryptophan fluorescence intensity z-score” value was inactive: -0.831.

For `CN(C)CCCN1c2ccccc2CCc2ccccc21` (plate: M 3-4), the “tryptophan fluorescence intensity z-score” value is inactive: 0.307.

For the molecule `C=C1CCC2C(CC2(C)C)C(=O)CCC1O` (stereo not drawn) (plate: M 21-22), the “tryptophan fluorescence intensity z-score” value is inactive: 0.443.
